Results published in PubChem BioAssay AID2685 (National Center for Advancing Translational Sciences (NCATS), 2010).
Some of the results follow. Shown are side measurements of this screen, not its main read-out; they come without a call. Compounds called inactive in the main read-out are mostly missing here. The note in brackets gives the kind of curve behind each potency; many fits are weak.

Assay: qHTS Assay for Lipid Storage Modulators in Drosophila S3 Cells;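 as to cell number change: cells counted by Cell Tracker Red CMTPX staining in the red channel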
Details: BODIPY lipid droplet fluorescence, 18-24 h; for cell number change: measured here: cell count max response, cells fed with added oleic acid
Summary of the method: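 Laser-scanning cytometry quantifies lipid droplet accumulation (500–530 nm total intensity; droplet/cell object ratio) in oleic acid-fed (400 uM added) Drosophila S3 cells treated with a concentration series. 20 uM Triacsin C defined 100% inhibition.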

[1] = measured here: lipid fluorescence (Fed channel) AC50, cells fed with added oleic acid
[2] = measured here: cell number channel AC50, cells fed with added oleic acid

SMILES	cell number change	AC50 [1]	AC50 [2]
O=C(O)c1ccc(-c2nc(-c3ccc(Cl)cc3Cl)cs2)cc1	-7.52%	6.51 µM [falling, single point]	
Cc1cccn2c(CN(C)C3CCCc4ccccc43)c(C(=O)N3CCOCC3)nc12 (centres undefined)	3.56%	3.66 µM [rising, single point]	
CC(Sc1nnc(-c2cccs2)n1-c1ccccc1)C(=O)NCc1ccc2c(c1)OCO2 (centres undefined)	-1.43%		
COc1ccc(C2=NN(C(C#N)c3ccc(OC)c(OC)c3)C(c3ccccc3)C2)cc1 (centres undefined)		0.461 µM [rising, single point]	1.3 µM [rising, partial curve]
CCOc1cc2[nH]c(=S)n(Cc3ccc(C(=O)NCCCOC)cc3)c(=O)c2cc1OCC	101%		6.51 µM [falling, single point]
Cc1c(CCO)c(=O)oc2n[nH]c(-c3ccccc3)c12	57.3%		29.1 µM [rising, single point]
O=C(O)c1cccc(C(=O)Nc2cccc(NC(=O)C3CCCO3)c2)c1 (centres undefined)	-1.35%	1.84 µM [falling, partial curve]	
CC(C)CNC(=O)COC(=O)c1ccccc1SCC(=O)NCC(C)C	68.6%	18.4 µM [rising, partial curve]	
O=C(CNC1CCN(Cc2ccccc2)CC1)Nc1ccc(S(=O)(=O)N2CCCCC2)cc1	-26.8%	20.6 µM [falling, partial curve, poor fit]	0.517 µM [falling, full curve]
CCOC(=O)C1CCCN(Cc2ccc3c(c2)OCO3)C1 (centres undefined)	25.3%	6.51 µM [rising, full curve, poor fit]	
O=C(NNc1c(F)c(F)cc(F)c1F)c1cc2ccccc2oc1=O	12.7%		
Cc1cc(N2CCOCC2)ccc1/C=C\[N+](=O)[O-]	-41.2%	4.61 µM [falling, full curve]	11.6 µM [falling, partial curve]
CCCCC(=O)N/N=C(/C)C1=C(C)C(C)(C)OC1=O	79.6%	0.259 µM [rising, partial curve, poor fit]	
COc1cc(NC(=O)c2cccc(F)c2)cc(OC)c1OC		0.58 µM [rising, single point]	0.651 µM [rising, single point]
Cc1cc(C)n(C(=O)CNC(=O)c2ccco2)n1		5.8 µM [falling, full curve]	6.51 µM [falling, single point]
N#Cc1ccccc1NC(=O)COC(=O)COc1ccccc1[N+](=O)[O-]	-46.4%		0.651 µM [falling, full curve]
CCN(CC)CCOc1ccc2c(c1)C(=NO)c1cc(OCCN(CC)CC)ccc1-2		4.11 µM [falling, single point]	
O=C(O)c1cccnc1SC1CC(=O)N(c2cccc3ccccc23)C1=O (centres undefined)	-17.8%	29.1 µM [falling, single point]	

Copied from the list:
`CCCCC(=O)N/N=C(/C)C1=C(C)C(C)(C)OC1=O` | AC50 [1]: 0.259 µM [rising, partial curve, poor fit]
`O=C(O)c1cccc(C(=O)Nc2cccc(NC(=O)C3CCCO3)c2)c1` (centres undefined) | cell number change: -1.35%

Next compounds follow:

SMILES	cell number change	AC50 [1]	AC50 [2]
CCOC(=O)C1CCCN(S(=O)(=O)c2c(C(=O)N3CCCCC3)c(C)n(C)c2C)C1 (centres undefined)	21.7%	29.1 µM [rising, single point]	
CC1CC(=O)c2cnc(NCC3CCCO3)nc2C1 (centres undefined)	-86.7%	20.6 µM [falling, partial curve]	23.1 µM [falling, partial curve, poor fit]
Cc1cccc2cc(COC(=O)c3cccs3)c(=O)[nH]c12	13.2%	0.651 µM [rising, full curve, poor fit]	
Oc1ccc(Cl)cc1Cc1cc(Cl)ccc1O	-84.8%	23.1 µM [falling, partial curve]	20.6 µM [falling, partial curve]
CN(c1c[nH]c(=O)[nH]c1=O)C1CCCCC1	-5.93%	0.291 µM [falling, full curve, poor fit]	
CC1(C)C(=O)NCCN1C(=O)CC1C(=O)NCCN1CC(c1ccccc1)c1ccccc1 (centres undefined)	5.79%	0.82 µM [falling, full curve, poor fit]	
O=C(NNC(=S)Nc1ccc(Br)cc1)c1ccccc1	14.2%	6.51 µM [rising, single point]	
COc1cc(OC)cc(-n2nc(C(=O)NCCCN3CCOCC3)c3ccccc3c2=O)c1	8.72%	6.51 µM [rising, full curve]	
O=C(Nc1ccc(S(=O)(=O)NC2=NCCCCC2)cc1)c1ccco1	6.85%	6.51 µM [rising, partial curve, poor fit]	6.51 µM [rising, single point]
COc1ccc(-c2[nH]ncc2CN2CCC(OCc3ccccc3)CC2)c(F)c1	1.43%	0.092 µM [falling, full curve, poor fit]	
O=[N+]([O-])c1ccc(N2CCN(Cc3ccc([N+](=O)[O-])o3)CC2)cc1	-23.9%	29.1 µM [falling, single point]	
CN(Cc1ccccc1Cl)C(=O)C1CCC(=O)N(C2CCCCCC2)C1 (centres undefined)	13.8%	0.651 µM [rising, full curve, poor fit]	
O=C(OC1CCS(=O)(=O)c2sccc21)c1ccccc1 (centres undefined)	17.6%		
O=C(COC(=O)c1nc(-c2ccccc2)n(-c2cccc(C(F)(F)F)c2)n1)NCc1cccs1	12.4%	0.731 µM [rising, full curve, poor fit]	
CCN(CC)S(=O)(=O)c1ccc(NC(=O)c2ccc(Sc3nncn3C)c([N+](=O)[O-])c2)cc1	15%	0.731 µM [rising, full curve, poor fit]	
O=C1CC(C(=O)O)c2ccccc2N1 (centres undefined)	-30.8%		10.3 µM [falling, partial curve, poor fit]
Cc1cc(C)nc(NC(=NCCc2c[nH]c3ccccc23)NC(=O)Nc2ccc(Cl)cc2)n1	-29%	14.6 µM [falling, partial curve]	
Cc1cccc(NS(=O)(=O)c2ccc(C)c(C(=O)NCc3ccncc3)c2)c1	37.2%	8.2 µM [rising, partial curve, poor fit]	7.31 µM [rising, partial curve, poor fit]
